From patent US20240239842A1 (CHUGAI SEIYAKU KABUSHIKI KAISHA, priority 2021, published 2024) come the findings set out here.

This data set is described as follows: general procedure: Fmoc solid-phase peptide synthesis; 2-chlorotrityl resin (100-200 mesh, 1% DVB); Fmoc-MeAsp(O-Trt(2-Cl)resin)-pip or Fmoc-D-3-Abu-O-Trt(2-Cl)resin; DIC/HOBt, DIC/HOAt or HATU/DIPEA (general description); cyclisation with HATU or. The settings on record: whole synthesis.

Substance “(3S,9S,12S,18S,27S,30R,35S)-18-(cyclohexylmethyl)-12-[(3-ethynylphenyl)methyl]-3-isobutyl-9-[(4-methoxyphenyl)methyl]-1,6,6,7,16,19,22,25,30,32-decamethyl-27-[(1S)-1-methylpropyl]-35-(piperidine-1-carbonyl)-1,4,7,10,13,16,19,22,25,28,32-undecaz” displayed an isolated mass of 14.72 mg. The same substance displayed an isolated yield (scale of the general procedure 0.0462 mmol (100 mg resin, 0.462 mmol/g)) of 26%.
